PubChem BioAssay AID743454, Peter MacCallum Cancer Centre, 2014

Screen: 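Knock-downs lowering viability or raising caspase 3/7 activity in vorinostat-treated resistant cells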 (primary screen)
Cell system: human HCT116-VR colon cancer cells, selected for vorinostat resistance
Knock-down reagent: siRNA pool against human genes, 40 nM siRNA pool
Time to read-out: vorinostat for 24 h, read-out about 72 h after transfection
Challenge: vorinostat at 2.5 µM final
Measured: 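Cell viability by CellTiter-Fluor and caspase 3/7 activity by luminescence, each scaled to mock wells per plate, duplicates averaged, then robust z-scored over all plates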
Direction: viability robust z-score: higher = more viable cells than screen typical; caspase robust z-score: higher = more caspase 3/7 activity than screen typical
Rule for the call: 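Hits are knock-downs in viability class RV1/RV2 or caspase class CA1/CA2, excluding ones that killed cells in the no-drug cell-count arm; hits then retested with single siRNAs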
Shown is one part, drawn at random, of about 18,000 reagents tested. Of all reagents, 450 (2.5%) got an active call. 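Single biological run; no consistent viability z cut-off exists, so the class columns, not z-scores, define the calls.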

no.	gene	viability hit class	caspase hit class	viability robust z-score	caspase robust z-score	Call
1	UBALD1 (UBA like domain containing 1)	no change	no change	-2.17	5.11	inactive
2	PDK3 (pyruvate dehydrogenase kinase 3)	no change	no change	-0.08	0.7	inactive
3	BARD1 (BRCA1 associated RING domain 1)	no change	no change	-1.09	-0.36	inactive
4	EPHB6 (EPH receptor B6)	no change	no change	-1.27	3.12	inactive
5	TRAPPC10 (trafficking protein particle complex subunit 10)	no change	no change	0.16	-1.34	inactive
6	EPS8L2 (EPS8 signaling adaptor L2)	no change	no change	0.96	0.66	inactive
7	DTX2 (deltex E3 ubiquitin ligase 2)	no change	no change	-1.64	-0.69	inactive
8	CCT5 (chaperonin containing TCP1 subunit 5)	no change	no change	-0.2	-0.74	inactive
9	BMS1 (BMS1 ribosome biogenesis factor)	no change	no change	-0.08	-0.58	inactive
10	FSCN3 (fascin actin-bundling protein 3)	no change	no change	-0.06	0.74	inactive

Next part (3 carried over from the part before).
no.	gene	viability hit class	caspase hit class	viability robust z-score	caspase robust z-score	Call
8	CCT5 (chaperonin containing TCP1 subunit 5)	no change	no change	-0.2	-0.74	inactive
9	BMS1 (BMS1 ribosome biogenesis factor)	no change	no change	-0.08	-0.58	inactive
10	FSCN3 (fascin actin-bundling protein 3)	no change	no change	-0.06	0.74	inactive
11	CLASP2 (cytoplasmic linker associated protein 2)	no change	no change	-0.58	1.07	inactive
12	TRIB3 (tribbles pseudokinase 3)	no change	no change	-1.05	0.15	inactive
13	SKI (SKI proto-oncogene)	no change	no change	1.66	1.77	inactive
14	MDM4 (MDM4 regulator of p53)	no change	no change	0.16	-1	inactive
15	TRRAP (transformation/transcription domain associated protein)	no change	no change	-0.4	1.1	inactive
16	GDPD2 (glycerophosphodiester phosphodiesterase domain containing 2)	no change	no change	1.04	-0.66	inactive
17	OR4K13 (olfactory receptor family 4 subfamily K member 13)	no change	no change	1.34	0.15	inactive
18	MILR1 (mast cell immunoglobulin like receptor 1)	no change	no change	-1.44	0.08	inactive
19	LINC01588 (long independently transcribed non-coding RNA 1588)	no change	no change	-0.54	-0.33	inactive
20	SNU13 (small nuclear ribonucleoprotein 13)	no change	no change	0.34	0.2	inactive
21	KCNE2	no change	no change	1.55	-0.44	inactive
22	MSL3 (MSL complex subunit 3)	no change	no change	0.4	2.08	inactive
23	LMNA (lamin A/C)	no change	no change	-0.58	1.9	inactive
